In paper PMC9233733:
These are yes or no findings as the source states them, for the method shown. Binding can be weak; no strength is given.

B1: Nup85 (protein, UniProt Q68FJ0 1-653)
chain: MEELDVDPAETPIPGLGQQNRHIGFSWGPGDLLLYETLYQKQGNSETAARCPFMYLVRSDEDIYSPVLRKLFNESHSIFVGLQKSAEEASGKSRKAQLVQVSRNYRSVLRACMEEMHTLSESTRETAQKYISQISILSAMELSWNLCEILFIESAPAGPLLILLLEWVRLHVCEVDNIVQDVLRSEKPTEHEKFWDGVTGYVLQGRMNEARQLLAKEASTSASARSMCRVLDDLLKKMPMLHTGGTQTLTEFELKWQHWREECERHLQNGTFSSNVHMEAVCRVLLGDEEVLLEKRDLMTTWYHFLVSRLLFKHPTVKPTELHFYAQSSLDMFLAGDSCPEPLDNILLAAFEFDIHQVIKEFSIVSSNWWFVAHLTDLLDHCQLFQAHNLYFGANMREFLLLDYASGLFSHHSLWQLGVDYFDYCPNLGREYLKLHMERIPLSTEKKALKALRICEQRQMTEQVRSICKTMAMQSLCNRRLGSALSWSIRAKDAAFATLISDRFLKEYCERGNFTDLDLIDNLGSAMLLSDRLTFLGKYREFHRMYSQEQFSEAASLLLSLMTARIAPCSFWLTLLLDALPLLEQKQVIFSAEQTYELMRCLEDRMAAKLESTSPDEIQKQDSSIDNTKVEMLRLALARNLARAIVTEGALQE
B2: Nup93 (protein, UniProt Q7ZX96 1-820)
chain: MDGEGFGELLQQAEQLAAETEGVTELPHVERNLQEIQQAGERLRSKTMTRTSQESANVKASVLLGSRGLDISHISQRLESLSAATTFEPLEPVKDTDIQGFLKNEKDNALLSAIEESRKRTFVMAEEYHRESMLVEWEQVKQRVLHTLLASGEDALDFTQESETSYISESGAPGRSSLDNVEMAYARQMYMYNEKVVSGHLQPSLVDLCTEAAERLDDKNVSDLWVMVKQMTDVPLIPASDTLKSRCSGQMQMAFVRQALNYLEQSYKNYTLISVFANLQQAQLGGVPGTYNLVRSFLNIRLPTPIPGLQDGEIEGYPVWALIYYCMRCGDLMAAQQVVNRAQHQLGDFKNCFQEYIHNKDRRLSPTTENKLRLHYRRAVRASTDPYKRAVYCIIGRCDVSDNHSEVADKTEDYLWLKLSQVCFEDEANSSPQDRLTLPQFQKQLFEDYGESHFAVNQQPYLYFQVLFLTAQFEAAIAFLFRLERTRCHAVHVALALFELKLLLKSTGQSAQLLSQEPGEPQGVRRLNFIRLLMLYTRKFEPTDPREALQYFYFLRNEKDNQGESMFLRCVSELVIESREFDMLLGKLEKDGSRKPGAIDKFTRDTKTIINKVASVAENKGLFEEAAKLYDLAKNPDKVLELTNKLLSPVVSQISAPQSNRERLKNMALAIAERYKSQGVSAEKSINSTFYLLLDLITFFDEYHAGHIDLSFDVIERLKLVPLSQDSVEERVAAFRNFSDEIRHNLSEILLATMNILFTQYKRLKGSGPTTLGRPQRVQEDKDSVLRSQARALITFAGMIPYRMSGDTNARLVQMEVLMN

Key:
[1] = target: T1, Nup93 (Xenopus laevis (endogenous in oocytes)) (UniProt Q7ZX96); experiment: cryo-EM structure; cytoplasmic ring (CR) subunit of NPCs in the X. laevis oocyte nuclear envelope spread on the grid in HEPES buffer (83 mmol/L KCl, 17 mmol/L NaCl, 10 mmol/L HEPES, pH 7.5), cross-linked with 0.15% glutaraldehyde; single particle analysis, maps at 8.7 Å (subunit), 8 Å (core), 8.9 Å (Nup358 region); AlphaFold2 models fitted by MDFF
T1 sequence: B2 chain

[2] = target: T2, Nup85 (Xenopus laevis (endogenous in oocytes)) (UniProt Q68FJ0); experiment: as above
T2 sequence: B1 chain

[3] = target: T2, Nup85 (Xenopus laevis (endogenous in oocytes)); experiment: cryo-EM structure; nuclear ring (NR) subunit of NPCs in the X. laevis oocyte nuclear envelope spread on the grid in HEPES buffer (83 mmol/L KCl, 17 mmol/L NaCl, 10 mmol/L HEPES, pH 7.5), cross-linked with 0.15% glutaraldehyde; single particle analysis, maps at 8.1 Å (subunit), 7.8 Å (core), 8.6 Å (Nup133 region); AlphaFold2 models fitted by MDFF
[4] = target: Nup96 (Xenopus laevis (endogenous in oocytes)); experiment: cryo-EM structure; cytoplasmic ring (CR) subunit of NPCs in the X. laevis oocyte nuclear envelope spread on the grid in HEPES buffer (83 mmol/L KCl, 17 mmol/L NaCl, 10 mmol/L HEPES, pH 7.5), cross-linked with 0.15% glutaraldehyde; single particle analysis, maps at 8.7 Å (subunit), 8 Å (core), 8.9 Å (Nup358 region); AlphaFold2 models fitted by MDFF
[5] = target: Nup96 (Xenopus laevis (endogenous in oocytes)); experiment: cryo-EM structure; nuclear ring (NR) subunit of NPCs in the X. laevis oocyte nuclear envelope spread on the grid in HEPES buffer (83 mmol/L KCl, 17 mmol/L NaCl, 10 mmol/L HEPES, pH 7.5), cross-linked with 0.15% glutaraldehyde; single particle analysis, maps at 8.1 Å (subunit), 7.8 Å (core), 8.6 Å (Nup133 region); AlphaFold2 models fitted by MDFF
[6] = target: Sec13 (Xenopus laevis (endogenous in oocytes)); experiment: cryo-EM structure; cytoplasmic ring (CR) subunit of NPCs in the X. laevis oocyte nuclear envelope spread on the grid in HEPES buffer (83 mmol/L KCl, 17 mmol/L NaCl, 10 mmol/L HEPES, pH 7.5), cross-linked with 0.15% glutaraldehyde; single particle analysis, maps at 8.7 Å (subunit), 8 Å (core), 8.9 Å (Nup358 region); AlphaFold2 models fitted by MDFF
[7] = target: Nup107 (Xenopus laevis (endogenous in oocytes)); experiment: as above
[8] = target: Nup107 (Xenopus laevis (endogenous in oocytes)); experiment: cryo-EM structure; nuclear ring (NR) subunit of NPCs in the X. laevis oocyte nuclear envelope spread on the grid in HEPES buffer (83 mmol/L KCl, 17 mmol/L NaCl, 10 mmol/L HEPES, pH 7.5), cross-linked with 0.15% glutaraldehyde; single particle analysis, maps at 8.1 Å (subunit), 7.8 Å (core), 8.6 Å (Nup133 region); AlphaFold2 models fitted by MDFF

Molecule	binding [2]	binding [3]	binding [4]	binding [5]	other results
Nup358 (Xenopus laevis (endogenous in oocytes))					binding [1]: binds
Nup205 (Xenopus laevis (endogenous in oocytes))	binds	binds			
Nup88 (Xenopus laevis (endogenous in oocytes))	binds				
Nup107 (Xenopus laevis (endogenous in oocytes))		binds			
B1			binds	binds	
B2			binds	binds	binding [6]: binds; binding [7]: binds; binding [8]: binds
